Drawing on patent US20140073639A1 (priority 2012, published 2014), this text covers inhibition for one compound.

One test deals with B. Anthracis. The test can be described thus: microbe, parasite or virus in culture. It is filed as cell-based. Conditions: Bacillus anthracis.
Another test deals with S. MRSA. The test can be described thus: microbe, parasite or virus in culture. It is filed as cell-based. To be noted: Staphylococcus aureus.

As to `O=S(=O)(c1ccc2[nH]c(SCc3cccc(Cl)c3)nc2c1)N1CCOCC1` [Cmpd 2], in the test on B. Anthracis (read-out: B. Anthracis 3 μM (growth inhibition)), the inhibition at 3 µM turned out to be 0%. Besides, the inhibition at 10 µM with B. Anthracis (read-out: B. Anthracis 10 μM (growth inhibition)) is 12%; in the test with S. MRSA (read-out: S. MRSA 10 μM (growth inhibition)) it was -24.8%. In addition, the inhibition at 30 µM in the test on B. Anthracis (read-out: B. Anthracis 30 μM (growth inhibition)) stood at 37.3%; in the test with S. MRSA (read-out: S. MRSA 30 μM (growth inhibition)) it was 46.2%.

What is called inhibition is the relative decrease from the control value, in per cent.
